Experimental data published in patent US20230092001A1, “FURANEOL GLYCOSIDE COMPOUND, PHARMACEUTICAL COMPOSITION THEREOF, PREPARATION METHOD THEREFOR, AND APPLICATION THEREOF” (priority 2019, published 2023).
At least one compound was matched to its structure with a doubt left.

System: ulcerative colitis model (dextran sodium sulphate)
Assay: Effect example 2: therapeutic effect on ulcerative colitis, dextran sodium sulphate model, oral gavage, 14 days
Type: in vivo, C57 mice
Procedure: Thirty-five 10-week-old male C57 mice, SPF class animal house, temperature 20-26° C., humidity 40%-70%, alternating light-dark periods (12 h/12 h).
Quarantine-qualified animals with similar weights were selected for the experiment.
Mice in the blank control group were given normal drinking water throughout the experiment. The other 6 groups of mice were given drinking water containing 2% dextran sodium sulphate from day 1 to day 5, normal drinking water from day 6 to day 7, drinking water containing 2% dextran sodium sulphate from day 8 to day 12, and normal drinking water from day 13 to day 14. The experiment ended on day 14. All groups were administered by oral gavage once a day according to table 7, until the end of the experiment on day 14.
(1) The mice were weighed daily.
(2) Blood samples were collected from the orbital vein on day 14 and stored at −80° C.
(3) On day 14, the mice were sacrificed by cervical vertebra dislocation, the colon was removed and a small amount of fecal was taken from the colon and left as a sample. The colon length and colon weight were measured. A portion of the colon and the fecal sample was stored at −80° C.

SMILES: CC(=O)OC[C@H]1O[C@@H](OC2=C(C)OC(=C(C)C)C2=O)[C@H](OC(C)=O)[C@@H](OC(C)=O)[C@@H]1OC(C)=O [Compound I-2, 4-O-[(2,3,4,6-tetra-O-acetyl)-β-D-glucosyl]-5-methyl-2-(1-methylethylidene)-3(2H)-furanone]
- Weight effect compared with the positive control drug SASP (in words) (40 mg/kg oral gavage vs SASP 30 mg/kg oral gavage): better than the positive control drug
- Effect on the reduction of weight in mice (in words) (40 mg/kg oral gavage, vs ulcerative colitis model group): significant improvement in the reduction of weight in mice
